Measurements taken from PubChem BioAssay AID540276 (National Center for Advancing Translational Sciences (NCATS), 2011).
The whole screen tested about 300,000 compounds, of which about 5,400 (1.8%) were called active. The inconclusive results got no clear call from the source; some entries with a clear call stand among them for comparison. The call rests on the fitted dose curve; tested in HEK293 cells. A potency beside an inconclusive call is a rough fit, not a confirmed value.

Experiment: qHTS for inhibitors of binding or entry into cells for Marburg Virus
Conditions: Marburg virus pseudotyped entry inhibition, cell reporter; series mostly up to 37.8 µM
Potency means the concentration at half of the fitted maximal effect.

Row | Structure (SMILES) | Potency
1 | CC(C)/C=N/NC(=O)c1ccc(Cl)cc1 | inactive
2 | COC(=O)c1cc(S(=O)(=O)N2CCOCC2)ccc1Sc1ccccc1N | inactive
3 | CCCOC(=O)Nc1nc2ccccc2o1 | inactive
4 | COc1ccc(NC(=O)c2ccc(S(=O)(=O)N3CCCCC3)cc2)c(OC)c1 | inactive
5 | CCN1C(=O)CC(N2CCN(c3ccc(C(=O)c4ccccc4)cc3)CC2)C1=O (centres undefined) | inconclusive: 0.794 µM [activator, full curve, poor fit]
6 | COc1c(C(=O)Nc2ccccc2N2CCOCC2)cc2ccccc2c1Br | inconclusive: 17.8 µM [inhibitor, single point]
7 | CC(C)[C@H](NC(=O)OCc1ccccc1)C(=O)OCC(=O)c1ccccc1 | inconclusive: 4.47 µM [inhibitor, full curve]
8 | COc1cccc(NC(=O)c2oc3ccccc3c2NC(=O)c2cc3ccccc3o2)c1 | inconclusive: 11.2 µM [activator, partial curve, poor fit]
9 | O=C1C(Cl)=C(NCC2CCCO2)C(=O)N1CCc1ccccc1 (centres undefined) | inactive
10 | CCN(CC)c1ccc(-n2cc3c(=O)n(C)c(=O)n(C)c3c2)cc1 | inconclusive: 10 µM [inhibitor, partial curve, poor fit]
11 | COc1ccc(CNn2c(-c3cccc(C)c3)nc3ccccc3c2=O)cc1OC | inconclusive: 18.3 µM [inhibitor, partial curve, poor fit]
12 | Cc1nn(Cc2ccc(Cl)cc2Cl)c(C)c1NC(=O)NC12CC3CC(CC(C3)C1)C2 | inconclusive: 25.1 µM [inhibitor, single point]
13 | Cc1ccc(-c2nc(CS(=O)(=O)CC(=O)NCCN3CCCC3)c(C)o2)cc1 | inconclusive: 35.5 µM [inhibitor, single point]
14 | COc1cc(/C=N/NC(=O)CCn2cnc(-c3ccccc3)c2-c2ccccc2)ccc1O | inconclusive: 10 µM [inhibitor, partial curve, poor fit]
15 | Cc1cc2c(cc1C)C(c1ccccc1Br)CC(=O)N2 (centres undefined) | inconclusive: 35.5 µM [inhibitor, single point]
16 | O=C1CC(O)(c2ccccc2)C(c2ccccc2)=C1c1ccccc1 (centres undefined) | inconclusive: 25.1 µM [inhibitor, partial curve, poor fit]
17 | CCCCN(CCCC)CCCNC(=O)CC1Oc2ccc(C)cc2NC1=O (centres undefined) | inconclusive: 11.6 µM [inhibitor, partial curve, poor fit]
18 | O=C(OCC#CCSc1nnc(-c2ccc(Br)cc2)o1)c1ccco1 | inactive
19 | O=C(Nc1cccc(C(F)(F)F)c1)c1ccc2snnc2c1 | inactive

Single entries from above.
Value of CCCCN(CCCC)CCCNC(=O)CC1Oc2ccc(C)cc2NC1=O (centres undefined) under Potency: inconclusive: 11.6 µM [inhibitor, partial curve, poor fit]
Value of COC(=O)c1cc(S(=O)(=O)N2CCOCC2)ccc1Sc1ccccc1N under Potency: inactive
